These are yes or no findings as the source states them, for the method shown. In cells and extracts the contact can be indirect. Some binding calls cover weakened binding; strength is not graded here.
Biological target: E2F1 transcription factor (human (endogenous in NCI-H460)) (UniProt Q01094)
Test: co-IP; endogenous proteins of NCI-H460 cells; Pierce Classic Magnetic IP/Co-IP Kit; Western blot with antibodies against PRR11 and E2F1; cells with E2F1 knock-down or negative control for 48 h; group without antibody as mock control

The chains behind the UniProt entries cited, without tags or fusion partners.
UniProt Q01094: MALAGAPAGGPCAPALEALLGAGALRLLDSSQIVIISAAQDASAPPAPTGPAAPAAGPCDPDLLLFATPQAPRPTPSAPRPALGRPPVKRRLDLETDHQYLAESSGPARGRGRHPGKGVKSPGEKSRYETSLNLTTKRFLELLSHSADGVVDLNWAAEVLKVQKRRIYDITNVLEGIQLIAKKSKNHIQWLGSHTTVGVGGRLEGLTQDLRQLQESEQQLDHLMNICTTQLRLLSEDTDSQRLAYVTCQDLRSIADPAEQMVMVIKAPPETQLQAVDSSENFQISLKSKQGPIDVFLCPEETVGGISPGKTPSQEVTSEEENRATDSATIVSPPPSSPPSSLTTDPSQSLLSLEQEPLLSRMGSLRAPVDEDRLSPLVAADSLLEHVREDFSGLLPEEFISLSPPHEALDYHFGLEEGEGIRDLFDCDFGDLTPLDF

B1: proline rich 11 (PRR11) (protein, UniProt Q96HE9 1-360)
chain: MPKFKQRRRKLKAKAERLFKKKEASHFQSKLITPPPPPPSPERVGISSIDISQSRSWLTSSWNFNFPNIRDAIKLWTNRVWSIYSWCQNCITQSLEVLKDTIFPSRICHRELYSVKQQFCILESKLCKLQEALKTISESSSCPSCGQTCHMSGKLTNVPACVLITPGDSKAVLPPTLPQPASHFPPPPPPPPLPPPPPPLAPVLLRKPSLAKALQAGPLKKDGPMQITVKDLLTVKLKKTQSLDEKRKLIPSPKARNPLVTVSDLQHVTLKPNSKVLSTRVTNVLITPGKSQMDLRKLLRKVDVERSPGGTPLTNKENMETGTGLTPVMTQALRRKFQLAHPRSPTPTLPLSTSSFDEQN
For B1, which binding is on record?
Its binding is “binds”.

From PMC9437250
